No constants are given. Whether binding was seen depends on the method and setting. In cells and extracts the contact can be indirect. Some entries that bind do so weakly or less than the wild type.

Amino acid sequences for entries named in this document (tags omitted).
UniProt Q13148: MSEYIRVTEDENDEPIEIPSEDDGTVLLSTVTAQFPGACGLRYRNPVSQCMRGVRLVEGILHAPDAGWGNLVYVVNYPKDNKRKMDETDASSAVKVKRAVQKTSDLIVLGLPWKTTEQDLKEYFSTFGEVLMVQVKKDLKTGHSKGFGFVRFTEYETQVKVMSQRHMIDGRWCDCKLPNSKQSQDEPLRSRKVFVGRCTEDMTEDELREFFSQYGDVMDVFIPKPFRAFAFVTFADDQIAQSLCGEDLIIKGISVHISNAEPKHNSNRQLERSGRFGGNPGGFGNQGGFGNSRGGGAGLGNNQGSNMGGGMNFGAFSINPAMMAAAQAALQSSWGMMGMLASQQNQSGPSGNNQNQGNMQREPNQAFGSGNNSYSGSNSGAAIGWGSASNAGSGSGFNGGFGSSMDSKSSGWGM
UniProt P37198: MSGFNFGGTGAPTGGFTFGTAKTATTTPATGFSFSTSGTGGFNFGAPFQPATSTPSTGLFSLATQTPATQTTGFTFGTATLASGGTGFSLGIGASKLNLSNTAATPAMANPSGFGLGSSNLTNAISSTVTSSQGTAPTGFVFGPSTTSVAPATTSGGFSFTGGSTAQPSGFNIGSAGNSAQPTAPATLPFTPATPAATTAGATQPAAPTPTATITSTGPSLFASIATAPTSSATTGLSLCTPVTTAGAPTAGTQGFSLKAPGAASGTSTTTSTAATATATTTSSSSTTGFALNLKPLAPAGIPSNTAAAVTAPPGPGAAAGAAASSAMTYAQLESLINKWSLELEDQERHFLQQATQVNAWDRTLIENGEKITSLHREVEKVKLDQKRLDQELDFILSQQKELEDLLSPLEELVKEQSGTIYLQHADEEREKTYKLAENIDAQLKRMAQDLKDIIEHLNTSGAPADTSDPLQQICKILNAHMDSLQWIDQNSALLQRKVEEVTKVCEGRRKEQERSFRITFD

The target in the test is eGFP-TDP-43 (wild type) (UniProt Q13148). The experiment in a line: co-IP; HEK293 cells co-transfected with mRuby-NUP62 and eGFP-TDP-43 (WT or ΔNLS) for 24 h; lysate incubated with GFP-Trap Magnetic Agarose beads 3 h at 4 °C; washed three times in 10 mM Tris/Cl pH 7.5, 150 mM NaCl, 0.5 mM EDTA; immunoblot for NUP62 and TDP-43. Background: A western blot detects proteins with antibodies after separation by electrophoresis.

In the case of mRuby-NUP62 (from UniProt P37198 1-522), the binding entry was “binds”.

The record behind these values is article PMC9192689.
